In patent US20100210517A1:
No constants are given. Whether binding was seen depends on the method and setting. Some entries that bind do so weakly or less than the wild type.

Protein sequences, listed by entry. Tags and fused reporters are not part of them. Lines headed by an entry give the natural chain unless they say otherwise; changes in a name come on top.
UniProt Q9Y5Y6: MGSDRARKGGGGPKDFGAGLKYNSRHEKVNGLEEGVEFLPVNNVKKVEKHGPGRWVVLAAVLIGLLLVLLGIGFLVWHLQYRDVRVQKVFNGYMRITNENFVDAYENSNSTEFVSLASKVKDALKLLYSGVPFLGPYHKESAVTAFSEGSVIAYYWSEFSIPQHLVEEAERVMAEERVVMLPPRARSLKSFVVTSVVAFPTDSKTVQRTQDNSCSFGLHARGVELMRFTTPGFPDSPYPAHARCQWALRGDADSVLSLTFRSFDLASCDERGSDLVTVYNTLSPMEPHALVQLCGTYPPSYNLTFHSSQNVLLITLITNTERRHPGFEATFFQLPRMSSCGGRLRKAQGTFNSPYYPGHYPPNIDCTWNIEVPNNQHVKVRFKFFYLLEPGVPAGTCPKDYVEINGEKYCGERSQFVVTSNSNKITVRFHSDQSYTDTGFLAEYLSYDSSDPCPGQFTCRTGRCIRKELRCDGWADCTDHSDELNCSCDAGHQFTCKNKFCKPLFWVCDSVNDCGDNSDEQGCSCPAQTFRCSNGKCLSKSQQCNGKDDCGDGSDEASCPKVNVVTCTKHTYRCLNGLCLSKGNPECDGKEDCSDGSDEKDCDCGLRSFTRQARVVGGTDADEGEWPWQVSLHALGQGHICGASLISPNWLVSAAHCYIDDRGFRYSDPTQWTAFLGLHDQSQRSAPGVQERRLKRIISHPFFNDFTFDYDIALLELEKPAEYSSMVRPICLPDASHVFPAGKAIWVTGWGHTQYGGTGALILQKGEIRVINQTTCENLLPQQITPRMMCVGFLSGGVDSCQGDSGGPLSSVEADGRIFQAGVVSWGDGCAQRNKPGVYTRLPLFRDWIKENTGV

Target: MAT CR12 (human) (UniProt Q9Y5Y6)
Assay: solid-phase binding assay, ligand at 80 nM, CR protein coated on plate

binding: binds
B1: MatRAP2 d3 (ligand, not shown: small tags and cut ends)
chain: LDRLRRVSHQGYSTEAEFEEPRVIDLWDLAQPANLTDKGLEAFREGLKHFLAKIEPHNHYQKQLETVREPLRYAESVGDGERVSRSHEKYALLEGRTRELGYTVKKHLQDLFGRISRAR
